# Test results from the supplement of paper PMC6411743.
# ± gives the standard deviation of the averaged measurements. Only a part is listed here, and it is no random draw.
# How the values were obtained:
# Assay in all cases: NP40-soluble protein abundance relative to vehicle (solubility fold change) (ratio); higher = more soluble protein in presence of ATP
# [1] = target: T1, CENPB (UniProt P07199)
# T1 sequence (whole entry): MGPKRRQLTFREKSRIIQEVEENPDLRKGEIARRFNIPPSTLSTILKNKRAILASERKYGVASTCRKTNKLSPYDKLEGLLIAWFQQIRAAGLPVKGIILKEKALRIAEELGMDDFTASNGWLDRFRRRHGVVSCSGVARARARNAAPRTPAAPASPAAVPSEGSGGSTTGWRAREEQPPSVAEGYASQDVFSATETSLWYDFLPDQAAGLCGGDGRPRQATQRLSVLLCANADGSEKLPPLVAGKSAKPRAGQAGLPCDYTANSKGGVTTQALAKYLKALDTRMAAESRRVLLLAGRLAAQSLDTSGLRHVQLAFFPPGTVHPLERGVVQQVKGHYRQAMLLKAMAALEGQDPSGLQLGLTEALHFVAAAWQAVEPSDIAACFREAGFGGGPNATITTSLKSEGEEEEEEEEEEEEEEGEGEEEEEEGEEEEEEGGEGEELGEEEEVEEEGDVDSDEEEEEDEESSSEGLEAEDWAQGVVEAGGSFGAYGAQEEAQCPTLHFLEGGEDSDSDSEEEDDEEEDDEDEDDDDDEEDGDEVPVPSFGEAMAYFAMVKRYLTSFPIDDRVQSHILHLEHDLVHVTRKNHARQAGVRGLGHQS
# Procedure, shortened: (§1)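 Each value is a fold change relative to the detergent-processed vehicle, calculated per replicate from vsn-normalised intensities. Jurkat crude lysate received eight concentrations (0.1 to 10 mM) for 10 min at room temperature and 3 min at 37 °C, then was solubilised in 0.8% NP40 with benzonase (60 min, 4 °C). The ultracentrifuged supernatant was TMT-labelled and run by LC-MS/MS in three independent experiments.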
# [2] = target: T2, CSTB (UniProt P04080)
# T2 sequence (whole entry): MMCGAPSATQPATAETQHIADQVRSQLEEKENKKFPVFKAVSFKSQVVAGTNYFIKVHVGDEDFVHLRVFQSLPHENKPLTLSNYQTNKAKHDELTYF
# Procedure, shortened: as §1
# [3] = target: T3, CYBA (UniProt P13498)
# T3 sequence (whole entry): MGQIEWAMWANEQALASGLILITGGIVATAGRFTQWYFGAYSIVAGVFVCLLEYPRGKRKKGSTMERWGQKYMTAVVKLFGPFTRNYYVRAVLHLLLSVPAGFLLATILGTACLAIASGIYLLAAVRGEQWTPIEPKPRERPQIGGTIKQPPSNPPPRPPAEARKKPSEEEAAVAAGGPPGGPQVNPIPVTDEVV
# Procedure, shortened: as §1
# [4] = target: T4, GLA (UniProt P06280)
# T4 sequence (whole entry): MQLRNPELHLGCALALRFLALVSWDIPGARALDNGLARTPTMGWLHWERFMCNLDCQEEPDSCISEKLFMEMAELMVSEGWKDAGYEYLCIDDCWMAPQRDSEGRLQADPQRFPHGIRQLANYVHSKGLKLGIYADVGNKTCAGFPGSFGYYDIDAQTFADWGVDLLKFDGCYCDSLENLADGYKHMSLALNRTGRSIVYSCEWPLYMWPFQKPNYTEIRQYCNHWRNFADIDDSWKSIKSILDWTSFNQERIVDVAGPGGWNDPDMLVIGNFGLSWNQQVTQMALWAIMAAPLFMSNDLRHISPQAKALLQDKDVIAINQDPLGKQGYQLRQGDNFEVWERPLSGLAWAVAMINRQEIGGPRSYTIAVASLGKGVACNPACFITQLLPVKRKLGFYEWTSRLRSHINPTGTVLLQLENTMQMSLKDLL
# Procedure, shortened: as §1
# [5] = target: T5, LTA4H (UniProt P09960)
# T5 sequence (whole entry): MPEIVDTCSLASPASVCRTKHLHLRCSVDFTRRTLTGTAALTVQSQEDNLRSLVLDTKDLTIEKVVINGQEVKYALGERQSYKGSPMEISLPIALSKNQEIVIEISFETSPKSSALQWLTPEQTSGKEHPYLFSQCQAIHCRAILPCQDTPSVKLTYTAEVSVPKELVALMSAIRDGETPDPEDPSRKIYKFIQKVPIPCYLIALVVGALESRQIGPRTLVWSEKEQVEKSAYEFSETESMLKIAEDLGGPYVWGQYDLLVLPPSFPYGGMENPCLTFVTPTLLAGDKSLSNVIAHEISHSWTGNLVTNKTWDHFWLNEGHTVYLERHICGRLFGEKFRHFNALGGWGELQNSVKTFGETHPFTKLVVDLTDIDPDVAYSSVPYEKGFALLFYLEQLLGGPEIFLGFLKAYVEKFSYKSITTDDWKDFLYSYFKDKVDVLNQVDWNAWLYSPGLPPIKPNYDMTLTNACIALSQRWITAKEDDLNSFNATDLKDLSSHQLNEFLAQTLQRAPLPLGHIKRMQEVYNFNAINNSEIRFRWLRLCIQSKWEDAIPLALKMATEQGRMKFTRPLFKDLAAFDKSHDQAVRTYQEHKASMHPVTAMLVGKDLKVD
# Procedure, shortened: as §1
# [6] = target: T6, PTTG1 (UniProt O95997)
# T6 sequence (whole entry): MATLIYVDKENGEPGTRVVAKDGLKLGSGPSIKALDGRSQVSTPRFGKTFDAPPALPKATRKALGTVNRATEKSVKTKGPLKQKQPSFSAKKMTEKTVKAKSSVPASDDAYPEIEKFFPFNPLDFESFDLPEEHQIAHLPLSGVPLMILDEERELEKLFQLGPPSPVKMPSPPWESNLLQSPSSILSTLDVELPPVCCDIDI
# Procedure, shortened: as §1
# [7] = target: T7, UniProt P02545 and related entries
# T7 sequence (whole entry): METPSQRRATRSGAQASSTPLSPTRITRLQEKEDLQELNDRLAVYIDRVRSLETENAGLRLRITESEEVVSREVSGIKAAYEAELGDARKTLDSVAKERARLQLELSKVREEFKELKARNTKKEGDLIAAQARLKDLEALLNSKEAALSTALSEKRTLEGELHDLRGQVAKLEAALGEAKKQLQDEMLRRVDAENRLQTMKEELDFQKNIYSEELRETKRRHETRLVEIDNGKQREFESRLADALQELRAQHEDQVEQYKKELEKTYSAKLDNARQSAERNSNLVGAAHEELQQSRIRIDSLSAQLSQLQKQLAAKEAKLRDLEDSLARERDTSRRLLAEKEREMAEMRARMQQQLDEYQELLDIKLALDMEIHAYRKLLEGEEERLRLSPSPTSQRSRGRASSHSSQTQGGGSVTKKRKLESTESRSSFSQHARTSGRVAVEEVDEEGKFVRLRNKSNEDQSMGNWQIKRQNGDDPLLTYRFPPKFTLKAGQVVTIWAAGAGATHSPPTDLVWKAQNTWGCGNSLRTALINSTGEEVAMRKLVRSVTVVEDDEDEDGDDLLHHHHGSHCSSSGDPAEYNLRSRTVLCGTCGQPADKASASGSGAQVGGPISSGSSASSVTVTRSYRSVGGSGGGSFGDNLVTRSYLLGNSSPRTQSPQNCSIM
# Procedure, shortened: as §1
# [8] = target: T8, UniProt P04083 and related entries
# T8 sequence (whole entry): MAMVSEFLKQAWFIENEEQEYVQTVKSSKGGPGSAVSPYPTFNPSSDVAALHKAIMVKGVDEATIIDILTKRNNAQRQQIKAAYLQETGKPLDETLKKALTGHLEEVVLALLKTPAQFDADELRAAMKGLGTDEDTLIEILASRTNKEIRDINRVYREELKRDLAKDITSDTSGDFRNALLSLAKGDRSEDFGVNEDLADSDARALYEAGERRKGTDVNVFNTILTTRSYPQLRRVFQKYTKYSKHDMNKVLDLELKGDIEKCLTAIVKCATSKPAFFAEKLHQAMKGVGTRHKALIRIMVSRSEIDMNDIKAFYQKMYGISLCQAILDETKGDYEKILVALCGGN
# Procedure, shortened: as §1
# [9] = target: T9, UniProt P10914
# T9 sequence (whole entry): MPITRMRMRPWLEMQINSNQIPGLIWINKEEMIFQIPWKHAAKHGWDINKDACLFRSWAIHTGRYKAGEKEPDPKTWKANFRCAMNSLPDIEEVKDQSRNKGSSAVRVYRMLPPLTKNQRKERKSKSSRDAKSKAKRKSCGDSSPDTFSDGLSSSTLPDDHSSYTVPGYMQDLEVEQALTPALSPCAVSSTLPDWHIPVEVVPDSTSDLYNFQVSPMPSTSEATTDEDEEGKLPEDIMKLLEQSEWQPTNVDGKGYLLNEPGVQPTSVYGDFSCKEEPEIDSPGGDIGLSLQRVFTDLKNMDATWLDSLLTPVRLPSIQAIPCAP
# Procedure, shortened: as §1
structure (smiles),measurement,setting,value
Nc1ncnc2c1ncn2[C@@H]1O[C@H](COP(=O)(O)OP(=O)(O)OP(=O)(O)O)[C@@H](O)[C@H]1O [adenosine triphosphate],NP40-soluble protein abundance,[1]; concentration: 1mM,1.07 ± 0.1
same,NP40-soluble protein abundance,[1]; concentration: 2mM,1.1 ± 0.058
same,NP40-soluble protein abundance,[1]; concentration: 4mM,1.09 ± 0.07
same,NP40-soluble protein abundance,[1]; concentration: 6mM,1.1 ± 0.089
same,NP40-soluble protein abundance,[1]; concentration: 8mM,1.06 ± 0.083
same,NP40-soluble protein abundance,[1]; concentration: 10mM,1.05 ± 0.027
same,NP40-soluble protein abundance,[2]; concentration: 1mM,0.933 ± 0.028
same,NP40-soluble protein abundance,[2]; concentration: 2mM,0.9112 ± 0.0042
same,NP40-soluble protein abundance,[2]; concentration: 4mM,0.887 ± 0.037
same,NP40-soluble protein abundance,[2]; concentration: 6mM,0.889 ± 0.023
same,NP40-soluble protein abundance,[2]; concentration: 8mM,0.901 ± 0.015
same,NP40-soluble protein abundance,[2]; concentration: 10mM,0.877 ± 0.013
same,NP40-soluble protein abundance,[3]; concentration: 1mM,1.02 ± 0.058
same,NP40-soluble protein abundance,[3]; concentration: 2mM,0.992 ± 0.07
same,NP40-soluble protein abundance,[3]; concentration: 4mM,0.965 ± 0.06
same,NP40-soluble protein abundance,[3]; concentration: 6mM,1.03 ± 0.075
same,NP40-soluble protein abundance,[3]; concentration: 8mM,0.942 ± 0.038
same,NP40-soluble protein abundance,[3]; concentration: 10mM,0.944 ± 0.037
same,NP40-soluble protein abundance,[4]; concentration: 1mM,0.92 ± 0.01
same,NP40-soluble protein abundance,[4]; concentration: 2mM,0.968 ± 0.044
same,NP40-soluble protein abundance,[4]; concentration: 4mM,0.95 ± 0.022
same,NP40-soluble protein abundance,[4]; concentration: 6mM,0.936 ± 0.035
same,NP40-soluble protein abundance,[4]; concentration: 8mM,0.9165 ± 0.006
same,NP40-soluble protein abundance,[4]; concentration: 10mM,0.96 ± 0.061
same,NP40-soluble protein abundance,[5]; concentration: 1mM,0.992 ± 0.093
same,NP40-soluble protein abundance,[5]; concentration: 2mM,0.983 ± 0.079
same,NP40-soluble protein abundance,[5]; concentration: 4mM,0.949 ± 0.064
same,NP40-soluble protein abundance,[5]; concentration: 6mM,0.924 ± 0.13
same,NP40-soluble protein abundance,[5]; concentration: 8mM,0.957 ± 0.036
same,NP40-soluble protein abundance,[5]; concentration: 10mM,0.952 ± 0.063
same,NP40-soluble protein abundance,[6]; concentration: 1mM,0.957 ± 0.086
same,NP40-soluble protein abundance,[6]; concentration: 2mM,0.883 ± 0.034
same,NP40-soluble protein abundance,[6]; concentration: 4mM,0.888 ± 0.021
same,NP40-soluble protein abundance,[6]; concentration: 6mM,0.943 ± 0.068
same,NP40-soluble protein abundance,[6]; concentration: 8mM,0.855 ± 0.052
same,NP40-soluble protein abundance,[6]; concentration: 10mM,0.873 ± 0.048
same,NP40-soluble protein abundance,[7]; concentration: 1mM,1.13 ± 0.13
same,NP40-soluble protein abundance,[7]; concentration: 2mM,1.11 ± 0.055
same,NP40-soluble protein abundance,[7]; concentration: 4mM,1.15 ± 0.16
same,NP40-soluble protein abundance,[7]; concentration: 6mM,1.16 ± 0.22
same,NP40-soluble protein abundance,[7]; concentration: 8mM,1.09 ± 0.09
same,NP40-soluble protein abundance,[7]; concentration: 10mM,1.2 ± 0.15
same,NP40-soluble protein abundance,[8]; concentration: 1mM,0.913 ± 0.042
same,NP40-soluble protein abundance,[8]; concentration: 2mM,0.928 ± 0.015
same,NP40-soluble protein abundance,[8]; concentration: 4mM,0.923 ± 0.019
same,NP40-soluble protein abundance,[8]; concentration: 6mM,0.9188 ± 0.0059
same,NP40-soluble protein abundance,[8]; concentration: 8mM,0.912 ± 0.019
same,NP40-soluble protein abundance,[8]; concentration: 10mM,0.868 ± 0.068
same,NP40-soluble protein abundance,[9]; concentration: 1mM,0.831 ± 0.19
same,NP40-soluble protein abundance,[9]; concentration: 2mM,0.972 ± 0.12
same,NP40-soluble protein abundance,[9]; concentration: 4mM,0.886 ± 0.043
same,NP40-soluble protein abundance,[9]; concentration: 6mM,0.869 ± 0.097
same,NP40-soluble protein abundance,[9]; concentration: 8mM,0.913 ± 0.053
same,NP40-soluble protein abundance,[9]; concentration: 10mM,0.921 ± 0.13

# Exported tab-delimited: entries from further up.
structure (smiles)	measurement	setting	value
Nc1ncnc2c1ncn2[C@@H]1O[C@H](COP(=O)(O)OP(=O)(O)OP(=O)(O)O)[C@@H](O)[C@H]1O [adenosine triphosphate]	NP40-soluble protein abundance	[5]; concentration: 1mM	0.992 ± 0.093
same	NP40-soluble protein abundance	[5]; concentration: 2mM	0.983 ± 0.079
same	NP40-soluble protein abundance	[5]; concentration: 4mM	0.949 ± 0.064
